Data as given in PMC6071684, “Defining the hydrophobic interactions that drive competence stimulating peptide (CSP)-ComD binding in Streptococcus pneumoniae” (Beilstein Journal of Organic Chemistry, 2018).
Where a SMILES comes first, the peptide text is derived from it. Where no end group is shown, it is not given here. [ ]: non-standard residue; d: D form. Phg = N[C@H](C(=O)O)c1ccccc1; Nle = CCCC[C@H](N)C(=O)O; Nva = CCC[C@H](N)C(=O)O

assay: Circular dichroism (CD) spectroscopy, helix content; format: physicochemical; settings: 200 µM peptide in PBS pH 7.4 with 20% TFE, 25 °C, from mean residue ellipticity at 222 nm

Row | Compound | Helicity (%)
1 | CC[C@H](C)[C@H](NC(=O)[C@H](Cc1ccccc1)NC(=O)[C@H](CC(=O)O)NC(=O)[C@H](CCCNC(=N)N)NC(=O)[C@H](Cc1ccccc1)NC(=O)[C@H](Cc1ccccc1)NC(=O)[C@H](CCCCN)NC(=O)[C@H](CO)NC(=O)[C@H](CC(C)C)NC(=O)[C@H](CCCNC(=N)N)NC(=O)[C@H](CCSC)NC(=O)[C@@H](N)CCC(=O)O)C(=O)N[C@@H](CC(C)C)C(=O)N[C@@H](CCC(N)=O)C(=O)N[C@@H](CCCNC(=N)N)C(=O)N[C@@H](CCCCN)C(=O)N[C@@H](CCCCN)C(=O)O [CSP1, reference compound] | 20.1
2 | CC[C@H](C)[C@H](NC(=O)[C@H](Cc1ccccc1)NC(=O)[C@H](CC(=O)O)NC(=O)[C@H](CCCNC(=N)N)NC(=O)[C@H](Cc1ccccc1)NC(=O)[C@@H](NC(=O)[C@H](CCCCN)NC(=O)[C@H](CO)NC(=O)[C@H](CC(C)C)NC(=O)[C@H](CCCNC(=N)N)NC(=O)[C@H](CCSC)NC(=O)[C@@H](N)CCC(=O)O)c1ccccc1)C(=O)N[C@@H](CC(C)C)C(=O)N[C@@H](CCC(N)=O)C(=O)N[C@@H](CCCNC(=N)N)C(=O)N[C@@H](CCCCN)C(=O)N[C@@H](CCCCN)C(=O)O [CSP1-F7FG] (H-EMRLSK[Phg]FRDFILQRKK-OH; N-terminus assumed) | 26.3
3 | CC[C@H](C)[C@H](NC(=O)[C@H](Cc1ccccc1)NC(=O)[C@H](CC(=O)O)NC(=O)[C@H](CCCNC(=N)N)NC(=O)[C@H](Cc1ccccc1)NC(=O)[C@H](CCc1ccccc1)NC(=O)[C@H](CCCCN)NC(=O)[C@H](CO)NC(=O)[C@H](CC(C)C)NC(=O)[C@H](CCCNC(=N)N)NC(=O)[C@H](CCSC)NC(=O)[C@@H](N)CCC(=O)O)C(=O)N[C@@H](CC(C)C)C(=O)N[C@@H](CCC(N)=O)C(=O)N[C@@H](CCCNC(=N)N)C(=O)N[C@@H](CCCCN)C(=O)N[C@@H](CCCCN)C(=O)O [CSP1-F7HF] | 26.7
4 | CC[C@H](C)[C@H](NC(=O)[C@H](Cc1ccccc1)NC(=O)[C@H](CC(=O)O)NC(=O)[C@H](CCCNC(=N)N)NC(=O)[C@@H](NC(=O)[C@H](Cc1ccccc1)NC(=O)[C@H](CCCCN)NC(=O)[C@H](CO)NC(=O)[C@H](CC(C)C)NC(=O)[C@H](CCCNC(=N)N)NC(=O)[C@H](CCSC)NC(=O)[C@@H](N)CCC(=O)O)c1ccccc1)C(=O)N[C@@H](CC(C)C)C(=O)N[C@@H](CCC(N)=O)C(=O)N[C@@H](CCCNC(=N)N)C(=O)N[C@@H](CCCCN)C(=O)N[C@@H](CCCCN)C(=O)O [CSP1-F8FG] (H-EMRLSKF[Phg]RDFILQRKK-OH; N-terminus assumed) | 13.4
5 | CC[C@H](C)[C@H](NC(=O)[C@H](Cc1ccccc1)NC(=O)[C@H](CC(=O)O)NC(=O)[C@H](CCCNC(=N)N)NC(=O)[C@H](CCc1ccccc1)NC(=O)[C@H](Cc1ccccc1)NC(=O)[C@H](CCCCN)NC(=O)[C@H](CO)NC(=O)[C@H](CC(C)C)NC(=O)[C@H](CCCNC(=N)N)NC(=O)[C@H](CCSC)NC(=O)[C@@H](N)CCC(=O)O)C(=O)N[C@@H](CC(C)C)C(=O)N[C@@H](CCC(N)=O)C(=O)N[C@@H](CCCNC(=N)N)C(=O)N[C@@H](CCCCN)C(=O)N[C@@H](CCCCN)C(=O)O [CSP1-F8HF] | 19.4
6 | CC[C@H](C)[C@H](NC(=O)[C@@H](NC(=O)[C@H](CC(=O)O)NC(=O)[C@H](CCCNC(=N)N)NC(=O)[C@H](Cc1ccccc1)NC(=O)[C@H](Cc1ccccc1)NC(=O)[C@H](CCCCN)NC(=O)[C@H](CO)NC(=O)[C@H](CC(C)C)NC(=O)[C@H](CCCNC(=N)N)NC(=O)[C@H](CCSC)NC(=O)[C@@H](N)CCC(=O)O)c1ccccc1)C(=O)N[C@@H](CC(C)C)C(=O)N[C@@H](CCC(N)=O)C(=O)N[C@@H](CCCNC(=N)N)C(=O)N[C@@H](CCCCN)C(=O)N[C@@H](CCCCN)C(=O)O [CSP1-F11FG] (H-EMRLSKFFRD[Phg]ILQRKK-OH; N-terminus assumed) | 15.9
7 | CC[C@H](C)[C@H](NC(=O)[C@H](CCc1ccccc1)NC(=O)[C@H](CC(=O)O)NC(=O)[C@H](CCCNC(=N)N)NC(=O)[C@H](Cc1ccccc1)NC(=O)[C@H](Cc1ccccc1)NC(=O)[C@H](CCCCN)NC(=O)[C@H](CO)NC(=O)[C@H](CC(C)C)NC(=O)[C@H](CCCNC(=N)N)NC(=O)[C@H](CCSC)NC(=O)[C@@H](N)CCC(=O)O)C(=O)N[C@@H](CC(C)C)C(=O)N[C@@H](CCC(N)=O)C(=O)N[C@@H](CCCNC(=N)N)C(=O)N[C@@H](CCCCN)C(=O)N[C@@H](CCCCN)C(=O)O [CSP1-F11HF] | 32.3
8 | CCCC[C@H](NC(=O)[C@H](Cc1ccccc1)NC(=O)[C@H](CC(=O)O)NC(=O)[C@H](CCCNC(=N)N)NC(=O)[C@H](Cc1ccccc1)NC(=O)[C@H](Cc1ccccc1)NC(=O)[C@H](CCCCN)NC(=O)[C@H](CO)NC(=O)[C@H](CC(C)C)NC(=O)[C@H](CCCNC(=N)N)NC(=O)[C@H](CCSC)NC(=O)[C@@H](N)CCC(=O)O)C(=O)N[C@@H](CC(C)C)C(=O)N[C@@H](CCC(N)=O)C(=O)N[C@@H](CCCNC(=N)N)C(=O)N[C@@H](CCCCN)C(=O)N[C@@H](CCCCN)C(=O)O [CSP1-I12NL] (H-EMRLSKFFRDF[Nle]LQRKK-OH; N-terminus assumed) | 24.7
9 | CCC[C@H](NC(=O)[C@H](Cc1ccccc1)NC(=O)[C@H](CC(=O)O)NC(=O)[C@H](CCCNC(=N)N)NC(=O)[C@H](Cc1ccccc1)NC(=O)[C@H](Cc1ccccc1)NC(=O)[C@H](CCCCN)NC(=O)[C@H](CO)NC(=O)[C@H](CC(C)C)NC(=O)[C@H](CCCNC(=N)N)NC(=O)[C@H](CCSC)NC(=O)[C@@H](N)CCC(=O)O)C(=O)N[C@@H](CC(C)C)C(=O)N[C@@H](CCC(N)=O)C(=O)N[C@@H](CCCNC(=N)N)C(=O)N[C@@H](CCCCN)C(=O)N[C@@H](CCCCN)C(=O)O [CSP1-I12NV] (H-EMRLSKFFRDF[Nva]LQRKK-OH; N-terminus assumed) | 25.6
10 | CCCC[C@H](NC(=O)[C@H](CCCNC(=N)N)NC(=O)[C@H](CCSC)NC(=O)[C@@H](N)CCC(=O)O)C(=O)N[C@@H](CO)C(=O)N[C@@H](CCCCN)C(=O)N[C@@H](Cc1ccccc1)C(=O)N[C@@H](Cc1ccccc1)C(=O)N[C@@H](CCCNC(=N)N)C(=O)N[C@@H](CC(=O)O)C(=O)N[C@@H](Cc1ccccc1)C(=O)N[C@H](C(=O)N[C@@H](CC(C)C)C(=O)N[C@@H](CCC(N)=O)C(=O)N[C@@H](CCCNC(=N)N)C(=O)N[C@@H](CCCCN)C(=O)N[C@@H](CCCCN)C(=O)O)[C@@H](C)CC [CSP1-L4NL] | 29.2
11 | CCC[C@H](NC(=O)[C@H](CCCNC(=N)N)NC(=O)[C@H](CCSC)NC(=O)[C@@H](N)CCC(=O)O)C(=O)N[C@@H](CO)C(=O)N[C@@H](CCCCN)C(=O)N[C@@H](Cc1ccccc1)C(=O)N[C@@H](Cc1ccccc1)C(=O)N[C@@H](CCCNC(=N)N)C(=O)N[C@@H](CC(=O)O)C(=O)N[C@@H](Cc1ccccc1)C(=O)N[C@H](C(=O)N[C@@H](CC(C)C)C(=O)N[C@@H](CCC(N)=O)C(=O)N[C@@H](CCCNC(=N)N)C(=O)N[C@@H](CCCCN)C(=O)N[C@@H](CCCCN)C(=O)O)[C@@H](C)CC [CSP1-L4NV] (H-EMR[Nva]SKFFRDFILQRKK-OH; N-terminus assumed) | 34.0
12 | CCCC[C@H](NC(=O)[C@@H](NC(=O)[C@H](Cc1ccccc1)NC(=O)[C@H](CC(=O)O)NC(=O)[C@H](CCCNC(=N)N)NC(=O)[C@H](Cc1ccccc1)NC(=O)[C@H](Cc1ccccc1)NC(=O)[C@H](CCCCN)NC(=O)[C@H](CO)NC(=O)[C@H](CC(C)C)NC(=O)[C@H](CCCNC(=N)N)NC(=O)[C@H](CCSC)NC(=O)[C@@H](N)CCC(=O)O)[C@@H](C)CC)C(=O)N[C@@H](CCC(N)=O)C(=O)N[C@@H](CCCNC(=N)N)C(=O)N[C@@H](CCCCN)C(=O)N[C@@H](CCCCN)C(=O)O [CSP1-L13NL] | 17.3
13 | CCC[C@H](NC(=O)[C@@H](NC(=O)[C@H](Cc1ccccc1)NC(=O)[C@H](CC(=O)O)NC(=O)[C@H](CCCNC(=N)N)NC(=O)[C@H](Cc1ccccc1)NC(=O)[C@H](Cc1ccccc1)NC(=O)[C@H](CCCCN)NC(=O)[C@H](CO)NC(=O)[C@H](CC(C)C)NC(=O)[C@H](CCCNC(=N)N)NC(=O)[C@H](CCSC)NC(=O)[C@@H](N)CCC(=O)O)[C@@H](C)CC)C(=O)N[C@@H](CCC(N)=O)C(=O)N[C@@H](CCCNC(=N)N)C(=O)N[C@@H](CCCCN)C(=O)N[C@@H](CCCCN)C(=O)O [CSP1-L13NV] (H-EMRLSKFFRDFI[Nva]QRKK-OH; N-terminus assumed) | 30.9
14 | EMRISKFFRDFILQRKK-OH [CSP1-L4I] | 34.8
15 | EMRLSKFYRDFILQRKK-OH [CSP1-F8Y] | 25.7
16 | EMRLSKYFRDFILQRKK-OH [CSP1-F7Y] | 31.8
17 | EMRVSKFFRDFILQRKK-OH [CSP1-L4V] | 30.1
